Drawing on PMC11651612, this text covers binding for eleven substances.

By UniProt entry, the sequences of proteins in these tests, tags left out. Where a name states a change or a piece, a line headed by the entry shows the natural chain unless it says otherwise.
UniProt J9VSM5: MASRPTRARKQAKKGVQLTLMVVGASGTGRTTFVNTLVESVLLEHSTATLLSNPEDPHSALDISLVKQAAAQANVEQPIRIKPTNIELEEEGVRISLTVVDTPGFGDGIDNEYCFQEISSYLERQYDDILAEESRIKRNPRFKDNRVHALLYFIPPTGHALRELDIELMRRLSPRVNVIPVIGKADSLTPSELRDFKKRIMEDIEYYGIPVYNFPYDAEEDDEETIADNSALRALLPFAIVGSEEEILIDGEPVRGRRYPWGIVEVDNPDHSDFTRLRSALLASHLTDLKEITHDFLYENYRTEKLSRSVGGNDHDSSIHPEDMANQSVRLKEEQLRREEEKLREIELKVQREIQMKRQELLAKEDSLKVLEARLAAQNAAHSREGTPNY
UniProt J9VQ58: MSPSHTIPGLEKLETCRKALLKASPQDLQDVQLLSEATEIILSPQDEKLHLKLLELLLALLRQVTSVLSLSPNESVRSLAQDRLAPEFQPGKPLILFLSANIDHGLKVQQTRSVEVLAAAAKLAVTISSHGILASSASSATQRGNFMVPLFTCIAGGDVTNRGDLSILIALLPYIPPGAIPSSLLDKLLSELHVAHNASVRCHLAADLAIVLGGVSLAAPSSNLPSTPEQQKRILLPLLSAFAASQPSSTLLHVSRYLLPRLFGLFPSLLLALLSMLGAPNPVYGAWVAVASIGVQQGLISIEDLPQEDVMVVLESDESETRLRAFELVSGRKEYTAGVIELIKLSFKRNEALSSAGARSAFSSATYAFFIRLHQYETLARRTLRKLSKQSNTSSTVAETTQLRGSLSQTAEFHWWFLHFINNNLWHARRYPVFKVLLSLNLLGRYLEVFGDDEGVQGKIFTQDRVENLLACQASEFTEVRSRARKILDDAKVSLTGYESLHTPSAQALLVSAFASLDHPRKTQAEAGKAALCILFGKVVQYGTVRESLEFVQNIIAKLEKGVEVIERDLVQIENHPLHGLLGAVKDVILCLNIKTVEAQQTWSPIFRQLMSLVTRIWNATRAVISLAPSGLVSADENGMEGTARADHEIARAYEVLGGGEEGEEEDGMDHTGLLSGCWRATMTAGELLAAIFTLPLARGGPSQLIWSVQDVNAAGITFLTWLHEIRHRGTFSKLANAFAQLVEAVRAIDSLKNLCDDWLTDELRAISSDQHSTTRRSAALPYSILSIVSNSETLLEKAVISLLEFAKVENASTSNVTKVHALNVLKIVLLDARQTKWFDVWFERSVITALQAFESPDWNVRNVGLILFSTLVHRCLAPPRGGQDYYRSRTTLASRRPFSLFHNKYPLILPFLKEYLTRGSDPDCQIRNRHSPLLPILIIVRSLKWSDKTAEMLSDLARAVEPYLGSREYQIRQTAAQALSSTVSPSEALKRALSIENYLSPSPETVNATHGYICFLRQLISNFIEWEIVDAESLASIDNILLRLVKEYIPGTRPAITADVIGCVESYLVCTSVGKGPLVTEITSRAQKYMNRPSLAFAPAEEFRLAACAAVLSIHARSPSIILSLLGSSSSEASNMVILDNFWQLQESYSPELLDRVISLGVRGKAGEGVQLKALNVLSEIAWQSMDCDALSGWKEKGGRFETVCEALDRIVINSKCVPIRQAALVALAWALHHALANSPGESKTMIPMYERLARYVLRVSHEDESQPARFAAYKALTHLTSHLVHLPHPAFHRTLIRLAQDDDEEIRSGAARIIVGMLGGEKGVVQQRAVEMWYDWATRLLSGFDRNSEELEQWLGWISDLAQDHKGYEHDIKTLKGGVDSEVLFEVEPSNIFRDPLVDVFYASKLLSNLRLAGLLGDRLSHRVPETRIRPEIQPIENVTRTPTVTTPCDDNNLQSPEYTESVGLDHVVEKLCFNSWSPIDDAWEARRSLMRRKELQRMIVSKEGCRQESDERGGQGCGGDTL
UniProt J9VV13: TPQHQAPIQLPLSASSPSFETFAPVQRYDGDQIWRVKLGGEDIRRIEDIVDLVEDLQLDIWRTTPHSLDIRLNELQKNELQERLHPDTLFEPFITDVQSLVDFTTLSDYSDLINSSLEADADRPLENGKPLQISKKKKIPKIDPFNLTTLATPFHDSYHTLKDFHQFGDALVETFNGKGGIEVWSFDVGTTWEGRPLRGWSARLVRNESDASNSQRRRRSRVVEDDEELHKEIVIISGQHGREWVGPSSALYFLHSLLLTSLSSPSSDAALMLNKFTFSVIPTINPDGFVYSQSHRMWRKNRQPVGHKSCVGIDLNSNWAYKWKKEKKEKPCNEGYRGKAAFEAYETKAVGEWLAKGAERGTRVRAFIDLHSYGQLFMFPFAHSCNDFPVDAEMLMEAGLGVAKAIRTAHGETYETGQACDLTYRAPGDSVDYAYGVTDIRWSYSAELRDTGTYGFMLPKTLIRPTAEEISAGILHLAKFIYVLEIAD
UniProt J9VU43: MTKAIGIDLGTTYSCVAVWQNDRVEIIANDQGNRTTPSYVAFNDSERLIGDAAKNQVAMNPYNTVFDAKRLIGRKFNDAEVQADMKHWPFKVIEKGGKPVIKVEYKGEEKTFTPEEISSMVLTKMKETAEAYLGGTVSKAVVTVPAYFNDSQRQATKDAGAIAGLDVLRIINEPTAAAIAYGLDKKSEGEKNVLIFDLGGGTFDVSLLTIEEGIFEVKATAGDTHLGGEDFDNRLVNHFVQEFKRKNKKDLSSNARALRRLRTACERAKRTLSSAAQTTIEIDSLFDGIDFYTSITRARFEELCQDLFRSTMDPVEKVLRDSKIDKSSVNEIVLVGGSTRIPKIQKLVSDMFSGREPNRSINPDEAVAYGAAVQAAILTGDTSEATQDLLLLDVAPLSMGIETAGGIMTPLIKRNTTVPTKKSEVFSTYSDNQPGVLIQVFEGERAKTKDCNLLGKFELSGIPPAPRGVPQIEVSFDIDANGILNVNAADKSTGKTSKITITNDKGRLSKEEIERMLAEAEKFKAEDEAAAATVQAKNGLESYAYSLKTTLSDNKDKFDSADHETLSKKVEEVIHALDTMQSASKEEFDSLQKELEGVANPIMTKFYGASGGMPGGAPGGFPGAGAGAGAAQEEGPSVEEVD
UniProt J9VS16: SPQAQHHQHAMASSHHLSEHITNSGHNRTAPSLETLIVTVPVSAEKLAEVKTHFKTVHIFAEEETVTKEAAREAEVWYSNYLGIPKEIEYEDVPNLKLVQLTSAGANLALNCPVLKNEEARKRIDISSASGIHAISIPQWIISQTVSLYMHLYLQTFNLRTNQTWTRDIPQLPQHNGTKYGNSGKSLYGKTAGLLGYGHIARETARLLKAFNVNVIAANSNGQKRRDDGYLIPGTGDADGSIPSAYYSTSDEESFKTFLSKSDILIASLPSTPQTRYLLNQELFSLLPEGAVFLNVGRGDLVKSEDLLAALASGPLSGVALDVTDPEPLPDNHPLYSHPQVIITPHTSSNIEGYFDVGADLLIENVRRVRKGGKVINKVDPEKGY
UniProt J9VQP8: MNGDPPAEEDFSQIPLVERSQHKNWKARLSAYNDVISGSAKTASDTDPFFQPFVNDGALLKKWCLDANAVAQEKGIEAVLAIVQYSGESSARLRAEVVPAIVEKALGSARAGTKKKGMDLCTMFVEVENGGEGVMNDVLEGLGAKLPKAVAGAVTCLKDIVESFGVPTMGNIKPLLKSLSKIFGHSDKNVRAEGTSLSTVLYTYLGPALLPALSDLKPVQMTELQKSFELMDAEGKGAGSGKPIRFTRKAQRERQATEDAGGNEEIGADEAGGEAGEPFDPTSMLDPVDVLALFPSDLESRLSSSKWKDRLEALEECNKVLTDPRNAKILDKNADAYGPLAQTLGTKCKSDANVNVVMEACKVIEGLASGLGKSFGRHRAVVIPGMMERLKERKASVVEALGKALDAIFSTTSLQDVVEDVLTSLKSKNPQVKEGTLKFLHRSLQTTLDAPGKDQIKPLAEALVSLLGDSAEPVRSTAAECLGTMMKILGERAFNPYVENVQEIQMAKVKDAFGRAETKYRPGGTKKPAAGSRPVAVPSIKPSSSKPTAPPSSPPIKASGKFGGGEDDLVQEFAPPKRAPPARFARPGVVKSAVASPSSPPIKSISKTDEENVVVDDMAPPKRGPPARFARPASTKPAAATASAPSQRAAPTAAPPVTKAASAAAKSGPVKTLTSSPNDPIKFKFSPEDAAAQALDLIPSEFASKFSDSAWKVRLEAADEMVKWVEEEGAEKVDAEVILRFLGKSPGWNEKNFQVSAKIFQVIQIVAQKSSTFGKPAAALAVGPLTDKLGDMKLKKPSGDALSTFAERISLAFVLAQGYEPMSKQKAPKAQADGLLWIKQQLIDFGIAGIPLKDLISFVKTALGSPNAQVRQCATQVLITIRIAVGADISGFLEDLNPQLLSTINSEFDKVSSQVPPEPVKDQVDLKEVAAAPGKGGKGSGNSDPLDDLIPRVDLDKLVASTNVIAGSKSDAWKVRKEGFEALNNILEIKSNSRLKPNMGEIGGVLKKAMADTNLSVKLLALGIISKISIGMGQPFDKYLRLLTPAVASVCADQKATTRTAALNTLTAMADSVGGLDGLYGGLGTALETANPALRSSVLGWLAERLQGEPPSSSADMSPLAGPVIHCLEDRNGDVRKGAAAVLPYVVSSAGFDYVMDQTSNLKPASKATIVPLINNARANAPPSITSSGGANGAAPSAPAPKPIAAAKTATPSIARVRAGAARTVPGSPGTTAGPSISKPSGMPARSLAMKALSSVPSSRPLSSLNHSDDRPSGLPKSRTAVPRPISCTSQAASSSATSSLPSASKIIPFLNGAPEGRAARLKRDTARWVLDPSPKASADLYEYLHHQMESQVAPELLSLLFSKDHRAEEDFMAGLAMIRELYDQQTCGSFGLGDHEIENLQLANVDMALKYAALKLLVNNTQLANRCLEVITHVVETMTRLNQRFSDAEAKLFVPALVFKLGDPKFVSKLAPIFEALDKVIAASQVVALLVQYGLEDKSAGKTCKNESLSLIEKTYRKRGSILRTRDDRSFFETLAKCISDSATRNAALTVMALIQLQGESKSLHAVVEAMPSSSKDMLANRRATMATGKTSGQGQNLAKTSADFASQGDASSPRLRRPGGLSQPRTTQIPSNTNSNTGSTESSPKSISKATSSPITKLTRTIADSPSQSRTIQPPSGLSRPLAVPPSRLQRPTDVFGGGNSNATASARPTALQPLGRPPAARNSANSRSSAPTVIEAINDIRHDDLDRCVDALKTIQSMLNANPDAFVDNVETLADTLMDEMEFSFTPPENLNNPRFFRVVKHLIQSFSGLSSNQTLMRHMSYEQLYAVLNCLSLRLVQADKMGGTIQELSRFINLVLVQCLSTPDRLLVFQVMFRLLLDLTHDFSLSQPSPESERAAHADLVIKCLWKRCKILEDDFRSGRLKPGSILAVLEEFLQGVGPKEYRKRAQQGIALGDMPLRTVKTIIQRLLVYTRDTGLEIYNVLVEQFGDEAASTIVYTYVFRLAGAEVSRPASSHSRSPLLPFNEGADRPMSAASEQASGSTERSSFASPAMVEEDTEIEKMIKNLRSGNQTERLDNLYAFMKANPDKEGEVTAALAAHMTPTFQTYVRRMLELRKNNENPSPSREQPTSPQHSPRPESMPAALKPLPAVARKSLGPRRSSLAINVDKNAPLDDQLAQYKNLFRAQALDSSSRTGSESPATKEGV
UniProt J9VR06: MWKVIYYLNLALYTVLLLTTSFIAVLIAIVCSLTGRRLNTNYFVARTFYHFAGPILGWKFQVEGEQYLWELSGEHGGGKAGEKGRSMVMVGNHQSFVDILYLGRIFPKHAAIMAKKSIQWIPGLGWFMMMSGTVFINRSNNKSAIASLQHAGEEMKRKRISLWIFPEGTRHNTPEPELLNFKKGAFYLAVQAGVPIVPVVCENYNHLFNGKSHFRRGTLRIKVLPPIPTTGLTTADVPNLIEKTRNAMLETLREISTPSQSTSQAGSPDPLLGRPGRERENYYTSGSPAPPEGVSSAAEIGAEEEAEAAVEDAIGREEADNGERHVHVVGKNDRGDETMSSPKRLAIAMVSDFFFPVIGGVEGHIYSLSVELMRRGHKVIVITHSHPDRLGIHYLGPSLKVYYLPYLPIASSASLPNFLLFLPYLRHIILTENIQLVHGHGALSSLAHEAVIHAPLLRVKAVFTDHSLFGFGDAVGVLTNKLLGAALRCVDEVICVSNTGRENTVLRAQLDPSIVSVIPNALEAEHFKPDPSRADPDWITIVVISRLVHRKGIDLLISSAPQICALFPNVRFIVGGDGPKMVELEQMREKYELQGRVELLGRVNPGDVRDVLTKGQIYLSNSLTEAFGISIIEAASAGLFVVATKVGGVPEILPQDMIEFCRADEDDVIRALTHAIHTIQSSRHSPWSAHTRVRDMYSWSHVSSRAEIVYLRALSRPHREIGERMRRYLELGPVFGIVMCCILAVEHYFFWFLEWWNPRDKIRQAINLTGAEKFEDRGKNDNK

These are yes or no findings as the source states them, for the method shown. Binding seen in cells or lysates may run through a third protein. A yes stands for co-enrichment or nearness to the bait. Other partners may have been found.

For assay [1], the target named is T1, Cdc10-mCherry (C. neoformans) (UniProt J9VMT9).
T1 sequence: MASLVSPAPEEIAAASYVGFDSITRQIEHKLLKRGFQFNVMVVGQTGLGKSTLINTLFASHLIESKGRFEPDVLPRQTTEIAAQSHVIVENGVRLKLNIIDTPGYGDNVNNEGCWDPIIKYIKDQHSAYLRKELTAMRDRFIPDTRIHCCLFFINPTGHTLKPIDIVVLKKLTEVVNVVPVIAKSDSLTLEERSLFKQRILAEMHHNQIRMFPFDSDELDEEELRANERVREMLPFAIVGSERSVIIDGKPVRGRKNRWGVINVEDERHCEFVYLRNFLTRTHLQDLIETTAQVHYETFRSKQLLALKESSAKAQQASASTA
As to the kind of experiment: affinity purification with mass spectrometry; mCherry-tagged septin captured from C. neoformans lysate on RFP-Trap agarose, 4 h at 4°C, washed with TBS with 2 M urea pH 7.5; GeLC-MS/MS; untagged H99 as negative control; hits logFC >2 and adjusted p <0.001 (text-named hits <0.05); exponential cultures at ~25°C or shifted to 37°C for 2 h; N = 5.

The target in assay [2] is T2, Cdc3-mCherry (C. neoformans) (UniProt J9VUF2).
T2 sequence: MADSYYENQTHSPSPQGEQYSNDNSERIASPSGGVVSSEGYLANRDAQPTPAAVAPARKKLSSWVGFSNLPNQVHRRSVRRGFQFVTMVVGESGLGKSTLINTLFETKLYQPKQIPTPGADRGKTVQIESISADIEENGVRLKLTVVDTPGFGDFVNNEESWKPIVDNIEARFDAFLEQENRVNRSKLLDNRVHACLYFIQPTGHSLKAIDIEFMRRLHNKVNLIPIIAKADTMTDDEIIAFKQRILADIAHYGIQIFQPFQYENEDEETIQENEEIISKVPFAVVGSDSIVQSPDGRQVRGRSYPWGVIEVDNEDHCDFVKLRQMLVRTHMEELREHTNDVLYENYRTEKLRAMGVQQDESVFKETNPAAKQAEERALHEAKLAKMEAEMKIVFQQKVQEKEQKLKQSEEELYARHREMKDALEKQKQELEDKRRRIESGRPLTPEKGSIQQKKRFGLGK
The description is as above.

The target in assay [3] is T1, Cdc10-mCherry (C. neoformans). Put plainly: affinity purification with mass spectrometry.
Assay [4] addresses T2, Cdc3-mCherry (C. neoformans). Put plainly: affinity purification with mass spectrometry.
Assay [5] shares this target. Put plainly: affinity purification with mass spectrom.
Assay [6] deals with T1, Cdc10-mCherry (C. neoformans). As to the kind of experiment: affinity purification with mass spectrom.

With “Septin ring protein CDC11 (from UniProt J9VSM5)”, the binding entry in assay [1] and in assay [2] was “binds” in each case.
Take “Cytoplasmic protein (CNAG_02286) (from UniProt J9VQ58 1-1525)”: in assay [3], the binding entry is recorded as “binds”.
With “Carboxypeptidase A4 (from UniProt J9VV13)”, the binding result in assay [4] was “binds”.
Take “Vacuolar protein (CNAG_01314) (from UniProt J9VKQ6)”: the binding result in assay [5] is given as “binds”.
Regarding “Carbamoyl-phosphate synthase, large subunit (from UniProt J9VF80 1-2333)”, the binding entry in assay [2] was “binds”.
Regarding “Hsp72-like protein (from UniProt J9VU43 1-642)”, in assay [1], the binding entry is listed as “binds”.
For the substance “Oxidoreductase (CNAG_07782) (from UniProt J9VS16)”, the binding entry in assay [3] and in assay [4] was “binds” throughout.
On to “Protein disulfide-isomerase (from UniProt J9VW50)”, for which the binding result in assay [2] is listed as “binds”.
“Microtubule Associated protein (from UniProt J9VQP8 1-2208)”: the binding entry in assay [1] and in assay [2] was “binds” throughout.
Turning to “1-acyl-sn-glycerol-3-phosphate acyltransferase (from UniProt J9VR06)”, the binding entry in assay [6] and in assay [5] was “binds” throughout.
For the substance “Polyubiquitin (CNAG_01920) (from UniProt J9VXH6)”, the binding entry in assay [2] is recorded as “binds”.
